{"source": "PubChem BioAssay AID504744, Drosophila RNAi Screening Center, 2011", "assay": "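Find genes whose loss alters insulin-driven dAkt phosphorylation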 (primary screen)", "system": "Drosophila Kc167 cells", "reagents": "long dsRNA against Drosophila genes, 250 ng dsRNA per well of a 384-well plate", "time to read-out": "3 days of knock-down, then overnight serum-free starvation before stimulation", "treatment": "bovine insulin at 387 nM for 10 minutes after 12 h without serum", "measured": "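In-cell antibody fluorescence for phospho-dAkt in each well over DNA-dye signal, with log2 residuals expressed as z-scores adjusted for cell count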", "rule for the call": "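Under insulin, a gene counts as a hit if the average z-score of two replicates lies above 2.5 or below -2.5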", "note": "The screen tested about 23,000 reagents; below is an unselected part of those with a known target gene and a result. Over the whole deposit, 98 (0.43%) got an active call. 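Only hit calls are given; the phospho-dAkt signals, z-scores and hit direction were not deposited.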 The numbers tell different reagents against one gene apart. A plus sign joins genes that one reagent is predicted to hit."}
{"Gene": "CG13058", "reagent": 1, "activity call": "inactive"}
{"Gene": "Atg12", "reagent": 1, "activity call": "inactive"}
{"Gene": "Ssu72", "reagent": 1, "activity call": "inactive"}
{"Gene": "Muc68E", "reagent": 1, "activity call": "inactive"}
{"Gene": "CG4459", "reagent": 1, "activity call": "inactive"}
{"Gene": "Tudor-SN", "reagent": 1, "activity call": "inactive"}
{"Gene": "kuz", "reagent": 1, "activity call": "inactive"}
{"Gene": "Pnn", "reagent": 1, "activity call": "inactive"}
{"Gene": "CAH15", "reagent": 1, "activity call": "inactive"}
{"Gene": "CG12860", "reagent": 1, "activity call": "inactive"}
{"Gene": "CG14829", "reagent": 1, "activity call": "inactive"}
{"Gene": "CG13699", "reagent": 1, "activity call": "inactive"}
{"Gene": "Ir56a", "reagent": 1, "activity call": "inactive"}
{"Gene": "tHMG2", "reagent": 1, "activity call": "inactive"}
{"Gene": "chinmo", "reagent": 1, "activity call": "inactive"}
{"Gene": "chinmo", "reagent": 2, "activity call": "inactive"}
{"Gene": "chinmo", "reagent": 3, "activity call": "inactive"}
{"Gene": "chinmo", "reagent": 4, "activity call": "inactive"}
{"Gene": "CG14247", "reagent": 1, "activity call": "inactive"}
{"Gene": "CG5757", "reagent": 1, "activity call": "inactive"}
{"Gene": "dnd", "reagent": 1, "activity call": "inactive"}
{"Gene": "CG31036", "reagent": 1, "activity call": "inactive"}
{"Gene": "CG31036", "reagent": 2, "activity call": "inactive"}
{"Gene": "Elp6", "reagent": 1, "activity call": "inactive"}
{"Gene": "CG11113", "reagent": 1, "activity call": "inactive"}
{"Gene": "CG5024", "reagent": 1, "activity call": "inactive"}
{"Gene": "CG14354", "reagent": 1, "activity call": "inactive"}
{"Gene": "Gar1", "reagent": 1, "activity call": "inactive"}
{"Gene": "CG34149", "reagent": 1, "activity call": "inactive"}
{"Gene": "CG14989", "reagent": 1, "activity call": "inactive"}
{"Gene": "Atg9", "reagent": 1, "activity call": "inactive"}
{"Gene": "CG30268", "reagent": 1, "activity call": "inactive"}
{"Gene": "CG8854", "reagent": 1, "activity call": "inactive"}
{"Gene": "CycH", "reagent": 1, "activity call": "inactive"}
{"Gene": "CycH", "reagent": 2, "activity call": "inactive"}
{"Gene": "ND-B14.5A", "reagent": 1, "activity call": "inactive"}
{"Gene": "Rpn8", "reagent": 1, "activity call": "inactive"}
{"Gene": "CG5440", "reagent": 1, "activity call": "inactive"}
{"Gene": "Mst57Da + alpha4GT2", "reagent": 1, "activity call": "inactive"}
{"Gene": "twr", "reagent": 1, "activity call": "inactive"}
{"Gene": "slp2", "reagent": 1, "activity call": "inactive"}
{"Gene": "Dad1", "reagent": 1, "activity call": "inactive"}
{"Gene": "LysE", "reagent": 1, "activity call": "inactive"}
{"Gene": "fog", "reagent": 1, "activity call": "inactive"}
{"Gene": "Prtl99C", "reagent": 1, "activity call": "inactive"}
{"Gene": "CCT5", "reagent": 1, "activity call": "inactive"}
{"Gene": "Or85d", "reagent": 1, "activity call": "inactive"}
{"Gene": "Gld2", "reagent": 1, "activity call": "inactive"}
{"Gene": "HIP + HIP-R", "reagent": 1, "activity call": "inactive"}
{"Gene": "CG9444", "reagent": 1, "activity call": "inactive"}
{"Gene": "CG14306 (retired record)", "reagent": 1, "activity call": "inactive"}
{"Gene": "Pgd", "reagent": 1, "activity call": "inactive"}
{"Gene": "CG12279", "reagent": 1, "activity call": "inactive"}
{"Gene": "spz3", "reagent": 1, "activity call": "inactive"}
{"Gene": "spz3", "reagent": 2, "activity call": "inactive"}
{"Gene": "CG13428", "reagent": 1, "activity call": "inactive"}
{"Gene": "aralar1", "reagent": 1, "activity call": "inactive"}
{"Gene": "aralar1", "reagent": 2, "activity call": "inactive"}

7 entries from above in another layout:
{"Gene":"CG11113","reagent":1,"activity call":"inactive"}
{"Gene":"CG5024","reagent":1,"activity call":"inactive"}
{"Gene":"CG14354","reagent":1,"activity call":"inactive"}
{"Gene":"Gar1","reagent":1,"activity call":"inactive"}
{"Gene":"CG34149","reagent":1,"activity call":"inactive"}
{"Gene":"CG14989","reagent":1,"activity call":"inactive"}
{"Gene":"Atg9","reagent":1,"activity call":"inactive"}
